The other results are listed elsewhere or left out. Shown are side measurements of this screen, not its main read-out; they come without a call. The list favours compounds with an active or inconclusive main result. The note in brackets gives the kind of curve behind each potency; many fits are weak.
Assay: qHTS Assay for Modulators of Lamin A Splicing
Conditions: HeLa LMNA splicing GFP/RFP minigene ratio, 48 h
Method in brief: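 Read-out is the ratio of GFP to DsRed2 object intensity, acquired by 488 nm laser-scanning cytometry on HeLa lamin A-EGFP minigene reporter cells. Compound incubation 48 hrs at 37 °C in Opti-MEM with 2% FBS; DMSO 0.5% final.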

[1] = measured here: GFP splicing reporter channel
[2] = measured here: RFP viability control channel

Row | SMILES | AC50 [1] | AC50 [2]
1 | COc1ccc2cc(N=Cc3nc(-c4ccc(C)cc4)oc3O)cnc2c1 | 4.47 µM [rising, partial curve, poor fit] | –
2 | CCOc1cc2[nH]c(=S)n(CCN3CCCCC3C)c(=O)c2cc1OCC (stereo not drawn) | – | 1.26 µM [falling, single point]
3 | Clc1ccc(-c2nnc3cccc(Cl)n23)c(Cl)c1 | 35.5 µM [rising, single point] | 31.6 µM [rising, single point]
4 | COc1ccccc1NC(=O)Nc1ccc(CC#N)cc1 | 0.316 µM [falling, partial curve, poor fit] | –
5 | OC[C@@H](O)[C@@H](O)[C@H](O)[C@H](O)CO | 35.5 µM [rising, single point] | 35.5 µM [rising, single point]
6 | O=C(Nc1ccc(Cc2ccncc2)cc1)C1CCC(N2C(=O)C3C4C=CC(C4)C3C2=O)CC1 (stereo not drawn) | 35.5 µM [rising, single point] | 22.4 µM [rising, single point]
7 | CCOC(=O)C1=C(C)OC(N)=C(C#N)C1c1ccc(C)s1 (stereo not drawn) | 35.5 µM [rising, single point] | –
8 | O=C(NCc1ccc(F)cc1)c1ccc(CS(=O)(=O)c2ccc(Cl)cc2)o1 | 0.00631 µM [falling, full curve, poor fit] | –
9 | CCCCCCCCCC(=O)Nc1cccnc1 | – | 2.82 µM [falling, partial curve, poor fit]
10 | CC(=O)N[C@@H](Cc1ccc(O)cc1)C(=O)O | 35.5 µM [falling, single point] | –
11 | COC(=O)CCCCNC(=O)Nc1ccccc1 | – | 22.4 µM [rising, single point]
12 | CCOC(=O)c1ccc(NC(=S)Nc2cc(C)cc(C)n2)cc1 | 8.91 µM [rising, partial curve, poor fit] | –
13 | Cn1cccc1CC(=O)NNC(=O)Nc1ccc(Cl)cc1 | – | 1.58 µM [falling, partial curve]
14 | N#Cc1ccsc1NC(=O)COC(=O)c1cc2ccccc2cc1O | 22.4 µM [rising, single point] | –
15 | COc1ccc(C(=O)N[C@H](C(=O)Nc2nc3c(s2)CCCC3)C(C)C)cc1 | – | 25.1 µM [rising, partial curve]
16 | COc1ccc(/C=C/C(=O)OCC(=O)NCc2ccco2)cc1OC | – | 11.2 µM [rising, partial curve]
17 | CC(C)c1ccc(C(=O)N(c2ccccn2)C(C)c2ccco2)cc1 (stereo not drawn) | – | 35.5 µM [rising, single point]
18 | CC1(C)CCC=[N+]1[O-] | 6.31 µM [falling, partial curve, poor fit] | –
19 | COCCCNc1nc2c(c(=O)n(C)c(=O)n2C)n1Cc1cccc(OC)c1 | – | 17.8 µM [rising, single point]
20 | Cc1nn(-c2ccc([N+](=O)[O-])cc2)c2c1C(c1cccc(Br)c1)N1C(=N2)C(=O)Nc2ccccc21 (stereo not drawn) | – | 2.24 µM [rising, full curve]

Among those listed so far, these contain nitrogen in an aromatic ring:
Row | SMILES | AC50 [1] | AC50 [2]
1 | COc1ccc2cc(N=Cc3nc(-c4ccc(C)cc4)oc3O)cnc2c1 | 4.47 µM [rising, partial curve, poor fit] | –
2 | CCOc1cc2[nH]c(=S)n(CCN3CCCCC3C)c(=O)c2cc1OCC (stereo not drawn) | – | 1.26 µM [falling, single point]
3 | Clc1ccc(-c2nnc3cccc(Cl)n23)c(Cl)c1 | 35.5 µM [rising, single point] | 31.6 µM [rising, single point]
6 | O=C(Nc1ccc(Cc2ccncc2)cc1)C1CCC(N2C(=O)C3C4C=CC(C4)C3C2=O)CC1 (stereo not drawn) | 35.5 µM [rising, single point] | 22.4 µM [rising, single point]
9 | CCCCCCCCCC(=O)Nc1cccnc1 | – | 2.82 µM [falling, partial curve, poor fit]
12 | CCOC(=O)c1ccc(NC(=S)Nc2cc(C)cc(C)n2)cc1 | 8.91 µM [rising, partial curve, poor fit] | –
13 | Cn1cccc1CC(=O)NNC(=O)Nc1ccc(Cl)cc1 | – | 1.58 µM [falling, partial curve]
15 | COc1ccc(C(=O)N[C@H](C(=O)Nc2nc3c(s2)CCCC3)C(C)C)cc1 | – | 25.1 µM [rising, partial curve]
17 | CC(C)c1ccc(C(=O)N(c2ccccn2)C(C)c2ccco2)cc1 (stereo not drawn) | – | 35.5 µM [rising, single point]
19 | COCCCNc1nc2c(c(=O)n(C)c(=O)n2C)n1Cc1cccc(OC)c1 | – | 17.8 µM [rising, single point]
20 | Cc1nn(-c2ccc([N+](=O)[O-])cc2)c2c1C(c1cccc(Br)c1)N1C(=N2)C(=O)Nc2ccccc21 (stereo not drawn) | – | 2.24 µM [rising, full curve]

(next part)

Row | SMILES | AC50 [1] | AC50 [2]
21 | CCCCc1c(O)nc(SCC(=O)O)[nH]c1=O | – | 35.5 µM [falling, single point]
22 | CCOc1ccc(NC(=O)CN2C(=O)S/C(=C/c3cccn3C)C2=O)cc1 | 35.5 µM [falling, partial curve, poor fit] | –
23 | CCC(CC)C(=O)NC12CC3CC(CC(C3)C1)C2 | 0.1 µM [falling, full curve, poor fit] | –
24 | CC(C)CCNC(=O)NC(=O)COC(=O)/C=C/c1cc(Br)ccc1F | – | 0.158 µM [falling, full curve]
25 | COc1cccc(-c2cncnc2-n2ccnc2)c1 | 6.31 µM [rising, full curve, poor fit] | 12.6 µM [rising, partial curve, poor fit]
26 | CSc1nc(N2CCN(c3ccccc3)CC2)cc(N2CCN(c3ccccc3)CC2)n1 | 0.708 µM [falling, partial curve, poor fit] | –
27 | Cc1ccc(S(=O)(=O)N(C)CCCC(=O)Nc2cccc3ccccc23)cc1 | – | 25.1 µM [rising, single point]
28 | Cn1c(Cn2nnc3ccccc32)nnc1SCC(=O)N1c2ccccc2CCc2ccccc21 | 7.08 µM [rising, full curve, poor fit] | –
29 | Cc1cc(C)c(-c2csc(NC(=O)/C=C/c3cccs3)n2)c(C)c1 | 4.47 µM [rising, partial curve] | 3.55 µM [rising, partial curve]
30 | Cc1cccc(Cn2ncc(Cl)c(Cl)c2=O)c1 | – | 25.1 µM [falling, single point]
31 | COc1ccccc1C(=O)NCc1ccc2c(c1)CCN2C(=O)c1cccc(C)c1 | 20 µM [falling, partial curve] | 35.5 µM [falling, partial curve, poor fit]
32 | COC(=O)c1ccc(Cl)c(NC(=O)c2cccc([N+](=O)[O-])c2C)c1 | – | 0.02 µM [falling, full curve, poor fit]
33 | Cc1ccc2[nH]c3c(c2c1)CCCC3=O | – | 7.08 µM [falling, partial curve]
34 | N#CC(c1ccccc1)N(CCCCl)C(=O)c1ccc(Br)cc1 (stereo not drawn) | 14.1 µM [rising, single point] | 17.8 µM [rising, single point]
35 | COc1ccc(NC(=O)Cn2nnc(C(=O)NCCc3ccc(OC)c(OC)c3)c2N)c(OC)c1 | – | 0.398 µM [falling, partial curve, poor fit]
36 | Cc1ccc(S(=O)(=O)N2CCC(=O)N(C(COCc3cccc(C(F)(F)F)c3)Cc3ccccc3)CC2)cc1 (stereo not drawn) | – | 12.6 µM [rising, partial curve]
37 | CCOC(=O)c1cnn(-c2ccccc2)c1-n1cccc1C(=O)C(=O)Nc1ccccc1 | – | 35.5 µM [rising, single point]
38 | O=C(O)/C=C/C(=O)Nc1ccc(C(=O)c2ccccc2)cc1 | 12.6 µM [falling, partial curve, poor fit] | –
39 | CCOC(=O)c1c(-c2ccccc2)csc1NC(=S)NC(=O)c1ccccc1 | – | 10 µM [rising, partial curve, poor fit]
40 | CN1CCN(C(c2ccc(F)cc2)c2sc3nc(-c4ccco4)nn3c2O)CC1 (stereo not drawn) | 6.31 µM [falling, partial curve, poor fit] | –

Row | SMILES | AC50 [1] | AC50 [2]
41 | O=C(NC1CCCCCCC1)C1CCN(c2nc3ccccc3o2)CC1 | – | 7.08 µM [rising, partial curve, poor fit]
42 | CCc1nc2sccc2c(=O)n1N | 0.224 µM [rising, full curve, poor fit] | –
43 | O=S(=O)(c1ccccc1)N(CC1CO1)c1ccccc1 (stereo not drawn) | 17.8 µM [falling, single point] | –
44 | Cc1cc(NC(=O)CSc2nc3c([nH]c4ccccc43)c(=O)n2-c2cccc(Cl)c2)no1 | 2.51 µM [falling, partial curve] | –
45 | CCn1cc(C(=O)O)c(=O)c2cc(F)c(N3CCNCC3)nc21 | – | 1.26 µM [rising, partial curve, poor fit]
46 | COC(=O)[C@H]1[C@H]2CC3c4[nH]c5ccccc5c4CCN3C[C@@H]2CC[C@@H]1O (stereo partly drawn) | 35.5 µM [falling, single point] | 35.5 µM [falling, single point]
47 | C/C(=N\NC(N)=O)c1ccc(Cl)cc1 | 35.5 µM [falling, single point] | 35.5 µM [falling, single point]
48 | CC(C)CNC(=S)N1CCC(C(=O)c2ccc3c(c2)OCCO3)CC1 | 0.0282 µM [rising, full curve, poor fit] | –
49 | COc1ccc(CNS(=O)(=O)c2cc(C(=O)Nc3cc(Cl)cc(Cl)c3)ccc2F)cc1 | 14.1 µM [falling, single point] | 25.1 µM [falling, single point]
50 | C=C1CC[C@H](O)C/C1=C/C=C1\CCC[C@]2(C)[C@H]1CC[C@H]2[C@@H](C)/C=C\[C@@H](C)C(C)C | – | 0.1 µM [rising, full curve, poor fit]
51 | Cc1ccc(N2NC(=O)/C(=C\c3cc4c(cc3[N+](=O)[O-])OCO4)C2=O)cc1C | 17.8 µM [rising, single point] | 12.6 µM [rising, single point]
52 | COc1cc(OC)cc(C2=NCCN2)c1 | 0.891 µM [rising, full curve] | –
53 | CCOC(=O)c1cc2cc(OC)ccc2[nH]1 | 15.8 µM [rising, partial curve] | 12.6 µM [rising, partial curve]
54 | COc1cccc(S(=O)(=O)Nc2ccc(C(=O)N3CCN(C(=O)c4ccco4)CC3)cc2)c1 | – | 11.2 µM [rising, partial curve]
55 | Cc1cccc(S(=O)(=O)Nc2nc3ccccc3nc2Nc2ccc3c(c2)OCO3)c1 | 0.00891 µM [rising, single point] | 5.62 µM [rising, single point]
56 | CC(/C=N/N1CCN(Cc2ccccc2)CC1)=C\c1ccccc1 | 0.631 µM [falling, partial curve] | 3.16 µM [falling, partial curve, poor fit]
57 | c1ccc(OCCSc2nc3ccccc3o2)cc1 | 31.6 µM [rising, single point] | –
58 | O=C(COc1ccccc1-c1ccccc1)N/N=C/c1cccnc1 | 20 µM [rising, partial curve, poor fit] | 11.2 µM [rising, partial curve, poor fit]

Random excerpt: 2 records from the list.
Row | SMILES | AC50 [1] | AC50 [2]
41 | O=C(NC1CCCCCCC1)C1CCN(c2nc3ccccc3o2)CC1 | – | 7.08 µM [rising, partial curve, poor fit]
45 | CCn1cc(C(=O)O)c(=O)c2cc(F)c(N3CCNCC3)nc21 | – | 1.26 µM [rising, partial curve, poor fit]

— PubChem BioAssay AID1487 (National Center for Advancing Translational Sciences (NCATS), 2009)
